Data: paper PMC9692554

Legend:
[1] = target: pMarR double mutant R67A_G106A (cyanophage P-SSP7); assay: two-hybrid; GAL4 AD and BD fusions (tag at N or C terminus), S. cerevisiae YH109; three co-transformants spotted in serial dilutions on CSM -trp -leu -his with 5 mM 3-AT, 30 °C
[2] = target: pMarR double mutant R67A_S66A (cyanophage P-SSP7); assay: as above

B1: rpoA (PMM1535), α subunit of the RNAP, yeast two-hybrid fusion (protein, UniProt Q7UZW6 1-312)
chain: MLQYQIDRIDHQISDDRSQTGTFLIGPLERGQATTLGNSLRRVLMGGLEGSAVTAVRISGINHEYATIPGVREDVLDILLNCKQLSINSSNPETEIGRLVVNGPMEVKANDIQFSSQVEIVDGEKPIATIQEGHNLELEIHVERGVGYRPVDRRNQETTAIDLLQIDAVFMPVKRVNFTIDETAVAEGATGRERLTMEVVTDGSTSPDDAIAEAANQLIELFQPLATVTMVEEIPEEPEPSPEAQIPLEELNLSVRAYNCLKRAQVNSVSDLMGFSYEDLLEIKNFGSKSADEVIEALERIGISIPQSRTSV
In the case of B1, the binding [1] is reported as “no binding” and the binding [2] is reported as “binds”.

No constants are given. Whether binding was seen depends on the method and setting. For some assays here: A result given as binding can be weak or reduced; the word gives no strength. Tags and fused reporters may be left off the sequences shown.
